From patent US20210142173A1, “NETWORK-BASED DEEP LEARNING TECHNOLOGY FOR TARGET IDENTIFICATION AND DRUG REPURPOSING” (THE CLEVELAND CLINIC FOUNDATION, priority 2019, published 2021)
Some entries share one result that the patent states for a list of compounds.

Target: T1, human RORγt (Homo sapiens, UniProt P51449)
T1 construct: expressed in transfected cells; host or cells: HEK293T
T1 sequence (P51449 269-508 limits assumed): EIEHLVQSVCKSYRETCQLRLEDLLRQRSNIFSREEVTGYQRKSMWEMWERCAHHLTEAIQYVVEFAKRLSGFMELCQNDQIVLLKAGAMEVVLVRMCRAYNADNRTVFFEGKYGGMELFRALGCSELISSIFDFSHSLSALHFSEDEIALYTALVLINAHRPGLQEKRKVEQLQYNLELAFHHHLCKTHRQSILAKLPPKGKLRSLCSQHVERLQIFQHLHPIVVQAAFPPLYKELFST
Test: Cell-based GAL4-RORγt luciferase reporter assay in HEK293T cells
Settings: at a concentration of 10 μM
Description: FIG. 7A is a graph showing the inhibitory rate of various drugs as predicted by an example deep learning network system. […] In total, 18 purchasable drugs for RORγt were tested using a cell-based luciferase reporter assay. In this assay, GAL4-RORγt, with fused human RORγt LBD and GAL4 DNA binding domain are co-transfected into HEK293T cells with a luciferase reporter gene harboring the GAL4 response element33.

For CC[C@@]1(O)C(=O)OCc2c1cc1n(c2=O)Cc2cc3c(CN(C)C)c(O)ccc3nc2-1 [topotecan], which inhibitory rate is on record?
The inhibitory rate was greater than 30%.
